The results in this text go back to patent publication US20230039395A1, “LSD AND […] EQUIVALENCE DETERMINATION” (Universitätsspital Basel, priority 2021, published 2023).

Molecules are shown by their SMILES.

A short description of the data set: Treatment identification (blinding), retrospective guess of treatment.

In the case of `CCN(CC)C(=O)[C@@H]1C=C2c3cccc4[nH]cc(c34)C[C@H]2N(C)C1` [LSD, lysergic acid diethylamide], where the note is “100 μg LSD”, the sessions correctly identified is 57% and the “sessions mistaken as 15 mg psilocybin” value amounted to 18%. Under “200 μg LSD”, the sessions correctly identified was 61% and the “sessions mistaken as 100 μg LSD” value came out at 18%.
